In patent publication US8507235B2, “Isoprene production using the DXP and MVA pathway” (Danisco US Inc., priority 2009, dated 2013):

System: E. coli strain MCM597
Test: Carbon sources affecting isoprene production during growth on glucose (Biolog PM1 and PM2A plates)
Assay type: cell-based
Settings: 0.5% glucose, 0.2% yeast extract; normalized to control only fed glucose; p<0.1

Compound: NCCC[C@H](N)C(=O)O [L-ornithine]
- specific productivity of isoprene: increasing
